No constants are given. Whether binding was seen depends on the method and setting. In cells and extracts the contact can be indirect. Some binding calls cover weakened binding; strength is not graded here.

Amino acid sequences for entries named in this document (tags omitted). A change or cut given only in a name is not applied to a line headed by its entry. Chains listed by the source or under a name are the forms on record and can include a tag or linker.
UniProt P31750: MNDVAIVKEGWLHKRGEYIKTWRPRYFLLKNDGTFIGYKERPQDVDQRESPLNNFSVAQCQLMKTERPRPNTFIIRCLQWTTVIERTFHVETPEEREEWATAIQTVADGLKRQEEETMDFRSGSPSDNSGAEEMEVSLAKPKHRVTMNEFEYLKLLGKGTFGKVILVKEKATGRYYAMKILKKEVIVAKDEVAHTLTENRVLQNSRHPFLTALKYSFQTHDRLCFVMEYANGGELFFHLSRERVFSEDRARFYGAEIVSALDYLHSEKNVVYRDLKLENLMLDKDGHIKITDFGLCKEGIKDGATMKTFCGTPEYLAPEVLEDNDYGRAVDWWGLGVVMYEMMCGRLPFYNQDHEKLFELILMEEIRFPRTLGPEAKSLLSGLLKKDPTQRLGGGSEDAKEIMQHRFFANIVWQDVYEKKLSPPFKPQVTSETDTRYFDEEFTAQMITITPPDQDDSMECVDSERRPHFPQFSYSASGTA
V5-tagged full-length HIF-3α1 S524A mutant (Q9Y2N7-2, form named): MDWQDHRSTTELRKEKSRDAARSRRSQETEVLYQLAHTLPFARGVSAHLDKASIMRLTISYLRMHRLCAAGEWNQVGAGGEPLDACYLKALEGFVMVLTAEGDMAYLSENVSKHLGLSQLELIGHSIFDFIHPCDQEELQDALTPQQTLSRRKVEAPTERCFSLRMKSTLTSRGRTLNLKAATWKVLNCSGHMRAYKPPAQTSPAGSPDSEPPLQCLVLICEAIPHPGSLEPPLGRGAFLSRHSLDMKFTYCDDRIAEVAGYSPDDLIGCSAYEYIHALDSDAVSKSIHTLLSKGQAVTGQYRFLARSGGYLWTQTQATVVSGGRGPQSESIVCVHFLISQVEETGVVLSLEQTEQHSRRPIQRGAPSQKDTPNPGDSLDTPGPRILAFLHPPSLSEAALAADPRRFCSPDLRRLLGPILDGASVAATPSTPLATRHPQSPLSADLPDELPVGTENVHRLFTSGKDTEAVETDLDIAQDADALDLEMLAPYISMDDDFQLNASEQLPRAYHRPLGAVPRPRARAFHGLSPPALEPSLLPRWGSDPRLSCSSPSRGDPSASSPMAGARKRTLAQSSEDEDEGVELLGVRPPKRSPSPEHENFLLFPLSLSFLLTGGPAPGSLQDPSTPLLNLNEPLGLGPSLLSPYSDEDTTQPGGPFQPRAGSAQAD
V5-tagged full-length HIF-3α1 wild-type (Q9Y2N7-2, form named): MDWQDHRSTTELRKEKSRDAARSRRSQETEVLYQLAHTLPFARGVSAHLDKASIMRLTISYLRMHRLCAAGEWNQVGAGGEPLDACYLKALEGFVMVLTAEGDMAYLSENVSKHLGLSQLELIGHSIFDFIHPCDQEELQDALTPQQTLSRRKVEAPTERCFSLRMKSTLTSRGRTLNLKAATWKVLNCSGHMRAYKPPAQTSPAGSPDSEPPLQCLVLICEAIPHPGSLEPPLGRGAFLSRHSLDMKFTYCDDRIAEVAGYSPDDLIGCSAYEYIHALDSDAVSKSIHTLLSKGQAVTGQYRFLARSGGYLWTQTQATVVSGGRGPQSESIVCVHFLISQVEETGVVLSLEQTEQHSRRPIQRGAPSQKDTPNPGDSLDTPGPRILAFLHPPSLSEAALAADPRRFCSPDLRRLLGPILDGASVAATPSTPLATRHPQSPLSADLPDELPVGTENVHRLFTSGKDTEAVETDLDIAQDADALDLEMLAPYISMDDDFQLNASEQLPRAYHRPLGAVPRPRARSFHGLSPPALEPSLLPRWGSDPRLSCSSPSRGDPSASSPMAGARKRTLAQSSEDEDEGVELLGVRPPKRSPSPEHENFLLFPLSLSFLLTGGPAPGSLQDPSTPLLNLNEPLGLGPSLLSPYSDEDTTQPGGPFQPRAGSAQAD

Consider 2 substances from paper PMC10665492.

In the experiment the target is HA-tagged full-length PKB (UniProt P31750). Kind of experiment: co-IP; anti-HA immunoprecipitation (protein G Sepharose) from lysates of HEK 293 cells cotransfected with V5-HIF-3α1 WT or S524A and HA-PKB, MG132 for 4 h before lysis; lysis buffer 50 mM Tris/HCl pH 7.5, 150 mM NaCl, 1% Triton X-100, 2 mM EDTA, 2 mM EGTA; 4°C; IP blotted with V5 antibody.

For “V5-tagged full-length HIF-3α1 S524A mutant (from UniProt Q9Y2N7-2 1-667)”, the binding entry was “no binding”.

For the substance “V5-tagged full-length HIF-3α1 wild-type (from UniProt Q9Y2N7-2 1-667)”, the binding entry is recorded as “binds”.
